Experimental data from the supplement of paper PMC12823440, “Inhibitors supercharge kinase turnover through native proteolytic circuits” (Nature, 2025).
Some of the results follow. Hit calls seldom repeat between salt and free forms of one compound.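 Kinases were expressed as nanoluciferase fusions in K562 cells and luminescence was read every 4 h between 2 and 18 h as percent of control, DMSO set to 100% and a positive control to 0%. A time point counts as decreased when the signal drops significantly (2 sigma). The hit call is the authors' own, does not follow from the count of time points alone, and its rule is not shown.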

Chains of the proteins cited; added tags and fusions are not shown. Lines headed by an entry give the natural chain unless they say otherwise; changes in a name come on top.
UniProt P31749: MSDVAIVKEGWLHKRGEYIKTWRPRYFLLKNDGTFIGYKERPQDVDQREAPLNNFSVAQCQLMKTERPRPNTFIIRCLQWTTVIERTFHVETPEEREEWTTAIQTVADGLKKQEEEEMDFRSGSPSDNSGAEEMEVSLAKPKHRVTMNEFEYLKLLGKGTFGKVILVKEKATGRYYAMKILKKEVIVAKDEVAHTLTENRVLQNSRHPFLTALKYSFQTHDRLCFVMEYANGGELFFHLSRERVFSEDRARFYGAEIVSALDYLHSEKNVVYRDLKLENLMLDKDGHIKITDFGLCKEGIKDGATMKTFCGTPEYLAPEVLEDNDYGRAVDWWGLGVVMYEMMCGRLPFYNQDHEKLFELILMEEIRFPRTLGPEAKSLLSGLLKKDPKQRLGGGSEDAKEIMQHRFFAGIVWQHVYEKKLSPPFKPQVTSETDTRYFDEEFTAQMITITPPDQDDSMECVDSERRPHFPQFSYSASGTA
UniProt Q9UM73: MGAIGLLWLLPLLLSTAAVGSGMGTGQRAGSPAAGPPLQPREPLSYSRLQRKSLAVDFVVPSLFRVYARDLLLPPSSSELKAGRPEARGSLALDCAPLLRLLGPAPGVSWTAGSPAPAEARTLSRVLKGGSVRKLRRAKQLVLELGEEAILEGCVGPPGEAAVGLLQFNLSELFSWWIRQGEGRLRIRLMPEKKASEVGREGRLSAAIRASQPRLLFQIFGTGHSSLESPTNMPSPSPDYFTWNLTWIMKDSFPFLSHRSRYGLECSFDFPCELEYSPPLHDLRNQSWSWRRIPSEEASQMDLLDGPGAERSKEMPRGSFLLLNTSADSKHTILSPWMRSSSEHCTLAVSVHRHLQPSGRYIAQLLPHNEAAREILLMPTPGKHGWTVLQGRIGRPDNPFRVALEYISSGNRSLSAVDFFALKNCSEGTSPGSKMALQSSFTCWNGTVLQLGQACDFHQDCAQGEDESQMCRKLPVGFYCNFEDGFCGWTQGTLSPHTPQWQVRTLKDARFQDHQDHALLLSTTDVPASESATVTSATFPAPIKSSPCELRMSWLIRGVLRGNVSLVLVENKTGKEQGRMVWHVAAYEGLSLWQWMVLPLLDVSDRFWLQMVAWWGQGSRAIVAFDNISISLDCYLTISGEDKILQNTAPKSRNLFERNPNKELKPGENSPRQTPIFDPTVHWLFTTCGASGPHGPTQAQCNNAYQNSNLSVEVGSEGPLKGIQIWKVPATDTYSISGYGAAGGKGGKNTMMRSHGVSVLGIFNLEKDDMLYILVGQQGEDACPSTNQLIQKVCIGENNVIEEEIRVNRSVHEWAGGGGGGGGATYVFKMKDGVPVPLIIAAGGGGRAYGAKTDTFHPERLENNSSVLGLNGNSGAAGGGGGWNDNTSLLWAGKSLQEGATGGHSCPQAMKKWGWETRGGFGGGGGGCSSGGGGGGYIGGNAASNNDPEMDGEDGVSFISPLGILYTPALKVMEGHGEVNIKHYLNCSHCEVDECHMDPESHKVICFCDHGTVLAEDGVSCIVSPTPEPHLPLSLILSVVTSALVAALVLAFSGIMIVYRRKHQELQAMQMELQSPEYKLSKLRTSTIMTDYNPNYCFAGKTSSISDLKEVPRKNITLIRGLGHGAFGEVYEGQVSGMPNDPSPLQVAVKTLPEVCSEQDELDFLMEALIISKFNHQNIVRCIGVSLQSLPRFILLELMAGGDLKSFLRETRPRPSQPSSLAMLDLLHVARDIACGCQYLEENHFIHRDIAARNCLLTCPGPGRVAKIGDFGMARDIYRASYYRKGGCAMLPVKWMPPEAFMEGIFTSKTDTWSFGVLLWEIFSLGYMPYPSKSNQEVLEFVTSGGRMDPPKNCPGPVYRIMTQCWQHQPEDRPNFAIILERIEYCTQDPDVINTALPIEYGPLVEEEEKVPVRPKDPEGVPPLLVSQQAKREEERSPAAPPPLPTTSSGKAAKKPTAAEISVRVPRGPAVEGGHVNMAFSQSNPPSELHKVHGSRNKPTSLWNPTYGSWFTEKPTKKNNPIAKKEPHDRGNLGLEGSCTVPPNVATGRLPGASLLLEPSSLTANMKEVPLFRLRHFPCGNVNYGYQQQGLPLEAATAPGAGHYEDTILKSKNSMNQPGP
UniProt P10398: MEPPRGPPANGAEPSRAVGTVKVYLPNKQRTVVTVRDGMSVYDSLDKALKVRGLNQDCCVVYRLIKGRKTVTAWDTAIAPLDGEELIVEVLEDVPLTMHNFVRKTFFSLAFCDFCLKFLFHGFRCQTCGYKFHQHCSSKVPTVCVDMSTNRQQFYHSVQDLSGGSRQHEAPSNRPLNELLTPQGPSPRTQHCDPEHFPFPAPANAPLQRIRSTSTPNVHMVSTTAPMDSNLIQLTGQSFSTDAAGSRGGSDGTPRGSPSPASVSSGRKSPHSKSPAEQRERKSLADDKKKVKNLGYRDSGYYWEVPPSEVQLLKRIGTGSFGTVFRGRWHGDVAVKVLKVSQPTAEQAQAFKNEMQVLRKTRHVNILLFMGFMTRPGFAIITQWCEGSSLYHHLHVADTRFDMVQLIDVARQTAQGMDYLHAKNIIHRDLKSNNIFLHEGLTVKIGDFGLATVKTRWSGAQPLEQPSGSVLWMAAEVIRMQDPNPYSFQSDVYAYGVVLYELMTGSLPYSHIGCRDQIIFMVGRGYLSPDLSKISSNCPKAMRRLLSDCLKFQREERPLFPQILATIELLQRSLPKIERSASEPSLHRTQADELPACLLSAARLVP
UniProt O14965: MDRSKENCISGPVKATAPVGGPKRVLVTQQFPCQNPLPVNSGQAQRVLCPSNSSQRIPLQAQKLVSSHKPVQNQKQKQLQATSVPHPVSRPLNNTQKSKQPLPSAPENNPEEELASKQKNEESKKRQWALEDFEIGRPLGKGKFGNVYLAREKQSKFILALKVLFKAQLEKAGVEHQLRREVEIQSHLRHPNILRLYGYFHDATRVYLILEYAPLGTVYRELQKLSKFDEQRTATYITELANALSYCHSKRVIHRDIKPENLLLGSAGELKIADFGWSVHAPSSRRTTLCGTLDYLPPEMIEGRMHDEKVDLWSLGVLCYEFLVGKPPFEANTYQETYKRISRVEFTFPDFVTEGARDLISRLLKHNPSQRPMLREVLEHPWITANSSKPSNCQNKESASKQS
UniProt Q96GD4, whole entry: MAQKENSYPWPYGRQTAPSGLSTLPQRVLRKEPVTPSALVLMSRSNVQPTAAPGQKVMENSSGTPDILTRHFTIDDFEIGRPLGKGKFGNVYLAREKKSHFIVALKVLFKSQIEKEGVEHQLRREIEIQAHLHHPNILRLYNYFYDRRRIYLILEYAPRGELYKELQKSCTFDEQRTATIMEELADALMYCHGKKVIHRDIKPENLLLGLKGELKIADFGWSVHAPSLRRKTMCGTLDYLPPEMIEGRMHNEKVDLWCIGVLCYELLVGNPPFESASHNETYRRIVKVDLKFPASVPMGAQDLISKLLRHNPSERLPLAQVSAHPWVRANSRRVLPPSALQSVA
UniProt Q9UQB9: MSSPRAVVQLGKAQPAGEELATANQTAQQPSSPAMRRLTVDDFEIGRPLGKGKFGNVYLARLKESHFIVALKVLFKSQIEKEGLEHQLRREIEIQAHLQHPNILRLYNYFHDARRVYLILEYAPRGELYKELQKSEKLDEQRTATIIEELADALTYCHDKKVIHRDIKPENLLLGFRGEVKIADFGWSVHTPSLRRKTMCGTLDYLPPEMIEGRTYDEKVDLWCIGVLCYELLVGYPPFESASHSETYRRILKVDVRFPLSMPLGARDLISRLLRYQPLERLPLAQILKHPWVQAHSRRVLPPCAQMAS
UniProt P51451: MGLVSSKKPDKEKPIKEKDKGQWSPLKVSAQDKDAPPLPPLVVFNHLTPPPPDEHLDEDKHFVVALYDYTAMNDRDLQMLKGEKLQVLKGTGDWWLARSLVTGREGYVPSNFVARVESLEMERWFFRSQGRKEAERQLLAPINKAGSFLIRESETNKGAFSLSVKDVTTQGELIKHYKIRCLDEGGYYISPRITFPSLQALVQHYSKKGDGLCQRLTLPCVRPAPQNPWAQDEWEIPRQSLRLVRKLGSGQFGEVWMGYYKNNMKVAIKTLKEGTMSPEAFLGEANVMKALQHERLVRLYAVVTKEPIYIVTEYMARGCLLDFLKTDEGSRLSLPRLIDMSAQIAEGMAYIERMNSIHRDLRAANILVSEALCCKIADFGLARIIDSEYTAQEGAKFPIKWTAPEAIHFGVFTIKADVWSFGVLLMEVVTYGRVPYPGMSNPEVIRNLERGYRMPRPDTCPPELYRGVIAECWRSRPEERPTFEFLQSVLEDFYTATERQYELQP
UniProt P51813: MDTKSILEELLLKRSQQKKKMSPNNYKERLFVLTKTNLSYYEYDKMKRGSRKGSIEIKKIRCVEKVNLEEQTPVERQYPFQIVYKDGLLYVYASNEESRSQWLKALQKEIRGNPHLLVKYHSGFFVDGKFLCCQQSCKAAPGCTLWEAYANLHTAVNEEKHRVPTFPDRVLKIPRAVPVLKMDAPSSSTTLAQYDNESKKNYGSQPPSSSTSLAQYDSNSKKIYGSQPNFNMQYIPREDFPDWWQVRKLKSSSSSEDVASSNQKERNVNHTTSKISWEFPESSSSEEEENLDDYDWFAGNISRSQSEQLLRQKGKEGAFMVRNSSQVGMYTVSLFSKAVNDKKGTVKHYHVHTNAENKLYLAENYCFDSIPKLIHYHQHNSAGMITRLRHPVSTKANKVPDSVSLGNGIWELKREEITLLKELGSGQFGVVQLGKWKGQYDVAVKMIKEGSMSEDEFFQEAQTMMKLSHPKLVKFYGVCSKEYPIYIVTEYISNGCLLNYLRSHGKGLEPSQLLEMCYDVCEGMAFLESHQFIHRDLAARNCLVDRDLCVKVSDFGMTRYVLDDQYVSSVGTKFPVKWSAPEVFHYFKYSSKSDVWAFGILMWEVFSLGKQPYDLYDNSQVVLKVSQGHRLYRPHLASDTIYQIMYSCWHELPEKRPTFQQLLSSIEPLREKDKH
UniProt P15056, whole entry, looked up: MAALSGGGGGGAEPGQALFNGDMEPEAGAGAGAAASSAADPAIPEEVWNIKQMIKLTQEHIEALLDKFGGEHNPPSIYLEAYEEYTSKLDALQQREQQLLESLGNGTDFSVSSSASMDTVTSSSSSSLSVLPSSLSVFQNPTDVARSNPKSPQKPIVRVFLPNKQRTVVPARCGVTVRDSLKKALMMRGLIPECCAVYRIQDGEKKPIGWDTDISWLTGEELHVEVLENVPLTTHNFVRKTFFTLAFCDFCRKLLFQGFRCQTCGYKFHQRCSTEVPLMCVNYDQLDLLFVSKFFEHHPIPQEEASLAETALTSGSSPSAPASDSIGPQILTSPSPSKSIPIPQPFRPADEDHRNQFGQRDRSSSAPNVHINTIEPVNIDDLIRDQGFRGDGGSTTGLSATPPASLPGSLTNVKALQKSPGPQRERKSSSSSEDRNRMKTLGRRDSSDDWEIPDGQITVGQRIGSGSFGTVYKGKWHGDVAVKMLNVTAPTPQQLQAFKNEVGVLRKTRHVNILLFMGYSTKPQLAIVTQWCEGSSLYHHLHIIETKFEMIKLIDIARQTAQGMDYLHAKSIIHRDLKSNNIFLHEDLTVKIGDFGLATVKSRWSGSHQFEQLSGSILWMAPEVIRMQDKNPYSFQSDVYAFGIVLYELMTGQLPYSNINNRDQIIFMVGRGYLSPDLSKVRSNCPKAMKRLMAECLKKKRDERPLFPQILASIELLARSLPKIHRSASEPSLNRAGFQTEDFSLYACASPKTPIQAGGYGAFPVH

Tests used:
Assay in all cases: kinase-Nluc reporter destabilization hit call (1 = scored as downregulated) (binary); higher = compound decreases kinase abundance
Conditions in all cases: K562; 2-18 h
ABL1 = ABL1 (UniProt P00519)
AKT1 = AKT1 (UniProt P31749)
ALK = ALK (UniProt Q9UM73)
ARAF = ARAF (UniProt P10398)
AURKA = AURKA (UniProt O14965)
AURKB = AURKB (UniProt Q96GD4)
AURKC = AURKC (UniProt Q9UQB9)
BLK = BLK (UniProt P51451)
BMX = BMX (UniProt P51813)
BRAF = BRAF (UniProt P15056)

Measured: kinase-Nluc reporter destabilization hit call

Cc1ccc(NC(=O)c2cccc(N(C)C)c2)cc1NC(=O)c1ccc(O)cc1 (10 µM)
inactive: ABL1 = 0 | AKT1 = 0 | ALK 0 | ARAF 0 | AURKA 0 | AURKB 0 | AURKC 0 | BLK 0 | BMX 0

CC(C)C(=O)Nc1ncc(-c2cc(C(F)F)nn2-c2c(Cl)cccc2Cl)s1 (10 µM)
inactive: ABL1 = 0 | AKT1 = 0 | ALK 0 | ARAF 0 | AURKA 0 | AURKB 0 | AURKC 0 | BLK 0 | BRAF 0
active: BMX 1

CN(C)Cc1ccc(-c2cnn3c(-c4cccc(NC(=O)c5cccc(C(F)(F)F)c5)c4)ccnc23)cc1 (2.5 µM)
inactive: ABL1 = 0 | AKT1 = 0 | ALK 0 | ARAF 0 | AURKA 0 | AURKB 0 | AURKC 0 | BLK 0 | BMX 0

Cc1cc(C(=O)Nc2cccc(C(=O)Nc3cccc(C(F)(F)F)c3)c2)on1 (10 µM)
inactive: ABL1 = 0 | AKT1 = 0 | ALK 0 | ARAF 0 | AURKA 0 | AURKB 0 | AURKC 0 | BLK 0 | BMX 0 | BRAF 0

C=CC(=O)Nc1cccc(Nc2nc(Nc3ccc(OCCOC)cc3)ncc2F)c1 [Spebrutinib] (10 µM)
inactive: ABL1 = 0 | AKT1 = 0 | ALK 0 | ARAF 0 | AURKA 0 | AURKB 0 | AURKC 0 | BLK 0 | BMX 0 | BRAF 0

CN(C)CCOc1ccc(-c2nc(-c3ccncc3)c(-c3ccc4c(c3)CC/C4=N\O)[nH]2)cc1 (10 µM)
inactive: ABL1 = 0 | AKT1 = 0 | ALK 0 | ARAF 0 | AURKA 0 | AURKB 0 | AURKC 0 | BLK 0 | BMX 0

CC(C)(C)c1cc(NC(=O)Nc2ccc(-c3cn4c(n3)sc3cc(OCCN5CCOCC5)ccc34)cc2)no1 [Quizartinib] (10 µM)
inactive: ABL1 = 0 | AKT1 = 0 | ALK 0 | ARAF 0 | AURKA 0 | AURKB 0 | AURKC 0 | BLK 0 | BMX 0

N#CC(=Cc1ccc(O)c(O)c1)C(=O)NCc1ccccc1 (mixture of isomers) (10 µM)
inactive: ABL1 = 0 | AKT1 = 0 | ALK 0 | ARAF 0 | AURKA 0 | AURKB 0 | AURKC 0 | BLK 0 | BMX 0 | BRAF 0

Brc1c(Br)c(Br)c2n[nH]nc2c1Br (10 µM)
inactive: ABL1 = 0 | AKT1 = 0 | ALK 0 | ARAF 0 | AURKA 0 | AURKB 0 | AURKC 0 | BLK 0 | BMX 0 | BRAF 0

COCc1c(-c2ccc(NC(=O)Nc3cc(C(F)(F)F)ccc3F)c(F)c2)c2c(N)ncnn2c1CN1CCOCC1 (2.5 µM)
inactive: ABL1 = 0 | AKT1 = 0 | ALK 0 | ARAF 0 | AURKA 0 | AURKB 0 | AURKC 0 | BLK 0 | BMX 0

NC(=O)c1ccc(-c2nc(-c3ccccn3)c(-c3ccc4c(c3)OCO4)[nH]2)cc1 (10 µM)
inactive: ABL1 = 0 | AKT1 = 0 | ALK 0 | ARAF 0 | AURKA 0 | AURKB 0 | AURKC 0 | BLK 0 | BMX 0

Cc1ccc2c(Nc3ccc(Cl)cc3)nccc2c1Nc1ncccc1-c1ncnc2nc[nH]c12 [Raf inhibitor 1] (2.5 µM)
inactive: ABL1 = 0 | AKT1 = 0 | ALK 0 | ARAF 0 | AURKA 0 | AURKB 0 | AURKC 0 | BLK 0 | BMX 0

C=CC(=O)N1CC[C@H](n2nc(C#Cc3cc(OC)cc(OC)c3)c3c(N)ncnc32)C1 [Futibatinib] (10 µM)
inactive: ABL1 = 0 | AKT1 = 0 | ALK 0 | ARAF 0 | AURKA 0 | AURKB 0 | AURKC 0 | BLK 0 | BMX 0 | BRAF 0

COc1cc(Oc2ccnc3cc(OC)c(OC)cc23)ccc1NC(=O)NC(C)c1nccs1 (centres undefined) (2.5 µM)
inactive: ABL1 = 0 | AKT1 = 0 | ALK 0 | ARAF 0 | AURKA 0 | AURKB 0 | AURKC 0 | BLK 0 | BMX 0

COc1cc2ncnc(Nc3ccc(O)cc3)c2cc1OC (10 µM)
inactive: ABL1 = 0 | AKT1 = 0 | ALK 0 | ARAF 0 | AURKA 0 | AURKB 0 | AURKC 0 | BLK 0 | BMX 0

COc1cc(C)c(Sc2cnc(NC(=O)c3ccc(CNC(C)C(C)(C)C)cc3)s2)cc1C(=O)N1CCN(C(C)=O)CC1 (centres undefined) (2.5 µM)
inactive: ABL1 = 0 | AKT1 = 0 | ALK 0 | ARAF 0 | AURKA 0 | AURKB 0 | AURKC 0 | BLK 0 | BMX 0 | BRAF 0

CNC(=O)c1cc(Oc2ccc(NC(=O)Nc3cc(C(C)(C)C)nn3-c3ccc4ncccc4c3)c(F)c2)ccn1 [Rebastinib] (2.5 µM)
inactive: ABL1 = 0 | AKT1 = 0 | ALK 0 | ARAF 0 | AURKA 0 | AURKB 0 | AURKC 0 | BLK 0 | BMX 0

CNC(=O)c1cccc2cc(Oc3ccnc4cc(OCC5(N)CC5)c(OC)cc34)ccc12 [Lucitanib] (10 µM)
inactive: ABL1 = 0 | AKT1 = 0 | ALK 0 | ARAF 0 | AURKA 0 | AURKB 0 | AURKC 0 | BLK 0 | BMX 0

Nc1nc(N)c(N=O)c(OCC2CCCCC2)n1 (10 µM)
inactive: ABL1 = 0 | AKT1 = 0 | ALK 0 | ARAF 0 | AURKA 0 | AURKB 0 | AURKC 0 | BLK 0 | BMX 0 | BRAF 0

CN1CCN(C2CCN(C(=O)Nc3cc(Oc4ccc(NC(=O)C5(C(=O)Nc6ccc(F)cc6)CC5)c(F)c4)ccn3)CC2)CC1 [Golvatinib] (2.5 µM)
inactive: ABL1 = 0 | AKT1 = 0 | ALK 0 | ARAF 0 | AURKA 0 | AURKB 0 | AURKC 0 | BLK 0 | BMX 0 | BRAF 0

CN1CCN(c2ccc(C(=O)Nc3n[nH]c4ccc(Cc5cc(F)cc(F)c5)cc34)c(NC3CCOCC3)c2)CC1 [Entrectinib] (2.5 µM)
inactive: ABL1 = 0 | AKT1 = 0 | ALK 0 | ARAF 0 | AURKA 0 | AURKB 0 | AURKC 0 | BLK 0 | BMX 0

CC(C)(C#N)c1ccc(N2C(=O)OCc3cnc4ccc(-c5cnc6ccccc6c5)cc4c32)cc1 (2.5 µM)
inactive: ABL1 = 0 | AKT1 = 0 | ALK 0 | ARAF 0 | AURKA 0 | AURKB 0 | AURKC 0 | BLK 0 | BMX 0

At a glance, eight of the compounds above:
NC(=O)c1ccc(-c2nc(-c3ccccn3)c(-c3ccc4c(c3)OCO4)[nH]2)cc1 (10 µM)
inactive: ABL1 = 0 | AKT1 = 0 | ALK 0 | ARAF 0 | AURKA 0 | AURKB 0 | AURKC 0 | BLK 0 | BMX 0

Cc1ccc2c(Nc3ccc(Cl)cc3)nccc2c1Nc1ncccc1-c1ncnc2nc[nH]c12 [Raf inhibitor 1] (2.5 µM)
inactive: ABL1 = 0 | AKT1 = 0 | ALK 0 | ARAF 0 | AURKA 0 | AURKB 0 | AURKC 0 | BLK 0 | BMX 0

C=CC(=O)N1CC[C@H](n2nc(C#Cc3cc(OC)cc(OC)c3)c3c(N)ncnc32)C1 [Futibatinib] (10 µM)
inactive: ABL1 = 0 | AKT1 = 0 | ALK 0 | ARAF 0 | AURKA 0 | AURKB 0 | AURKC 0 | BLK 0 | BMX 0 | BRAF 0

COc1cc(Oc2ccnc3cc(OC)c(OC)cc23)ccc1NC(=O)NC(C)c1nccs1 (centres undefined) (2.5 µM)
inactive: ABL1 = 0 | AKT1 = 0 | ALK 0 | ARAF 0 | AURKA 0 | AURKB 0 | AURKC 0 | BLK 0 | BMX 0

COc1cc2ncnc(Nc3ccc(O)cc3)c2cc1OC (10 µM)
inactive: ABL1 = 0 | AKT1 = 0 | ALK 0 | ARAF 0 | AURKA 0 | AURKB 0 | AURKC 0 | BLK 0 | BMX 0

COc1cc(C)c(Sc2cnc(NC(=O)c3ccc(CNC(C)C(C)(C)C)cc3)s2)cc1C(=O)N1CCN(C(C)=O)CC1 (centres undefined) (2.5 µM)
inactive: ABL1 = 0 | AKT1 = 0 | ALK 0 | ARAF 0 | AURKA 0 | AURKB 0 | AURKC 0 | BLK 0 | BMX 0 | BRAF 0

CNC(=O)c1cc(Oc2ccc(NC(=O)Nc3cc(C(C)(C)C)nn3-c3ccc4ncccc4c3)c(F)c2)ccn1 [Rebastinib] (2.5 µM)
inactive: ABL1 = 0 | AKT1 = 0 | ALK 0 | ARAF 0 | AURKA 0 | AURKB 0 | AURKC 0 | BLK 0 | BMX 0

CNC(=O)c1cccc2cc(Oc3ccnc4cc(OCC5(N)CC5)c(OC)cc34)ccc12 [Lucitanib] (10 µM)
inactive: ABL1 = 0 | AKT1 = 0 | ALK 0 | ARAF 0 | AURKA 0 | AURKB 0 | AURKC 0 | BLK 0 | BMX 0

Next compounds follow:

CNc1nc(-c2ccc3c(N)n[nH]c3c2)cc(N2C[C@@H](C(=O)NC3CCCCC3)CC[C@H]2C)n1 (10 µM)
inactive: ABL1 = 0 | AKT1 = 0 | ALK 0 | ARAF 0 | AURKA 0 | AURKB 0 | AURKC 0 | BLK 0 | BMX 0 | BRAF 0

CCOc1ccn(-c2ccc(F)cc2)c(=O)c1C(=O)Nc1ccc(Oc2ccnc(N)c2Cl)c(F)c1 (10 µM)
inactive: ABL1 = 0 | AKT1 = 0 | ALK 0 | ARAF 0 | AURKA 0 | AURKB 0 | AURKC 0 | BLK 0 | BMX 0

CCN1CCN(Cc2ccc(C(=O)Nc3ccc(C)c(Oc4ccc5c(c4)CC(=O)N5)c3)cc2C(F)(F)F)CC1 (2.5 µM)
inactive: ABL1 = 0 | AKT1 = 0 | ALK 0 | ARAF 0 | AURKA 0 | AURKB 0 | AURKC 0 | BLK 0 | BMX 0 | BRAF 0

Cn1nc(C(C)(C)C)cc1NC(=O)Nc1ccc(Oc2ccncc2)cc1 (10 µM)
inactive: ABL1 = 0 | AKT1 = 0 | ALK 0 | ARAF 0 | AURKA 0 | AURKB 0 | AURKC 0 | BLK 0 | BMX 0

CCCCOc1c(C(=O)c2c(F)cc(C)cc2F)c[nH]c2nncc1-2 (10 µM)
inactive: ABL1 = 0 | AKT1 = 0 | ALK 0 | ARAF 0 | AURKA 0 | AURKB 0 | AURKC 0 | BLK 0 | BMX 0 | BRAF 0

O=c1cc(-c2ccccc2)oc2c(O)c(O)ccc12 [7,8-Dihydroxyflavone] (10 µM)
inactive: ABL1 = 0 | AKT1 = 0 | ALK 0 | ARAF 0 | AURKA 0 | AURKB 0 | AURKC 0 | BLK 0 | BMX 0 | BRAF 0

Nc1ncnc2c1c(-c1ccc(Oc3ccccc3)cc1)cn2C1CCCC1 (2.5 µM)
inactive: ABL1 = 0 | AKT1 = 0 | ALK 0 | ARAF 0 | AURKA 0 | AURKB 0 | AURKC 0 | BLK 0 | BMX 0 | BRAF 0

O=c1cc(N2CCOCC2)oc2c(-c3ccccc3)cccc12 (10 µM)
inactive: ABL1 = 0 | AKT1 = 0 | ALK 0 | ARAF 0 | AURKA 0 | AURKB 0 | AURKC 0 | BLK 0 | BMX 0 | BRAF 0

COc1c(Cl)cc2c([nH]c3cnccc32)c1NC(=O)c1cccnc1C (10 µM)
inactive: ABL1 = 0 | AKT1 = 0 | ALK 0 | ARAF 0 | AURKA 0 | AURKB 0 | AURKC 0 | BLK 0 | BMX 0
